Test results reported in paper PMC4928075.

Target: Crumbs homolog 3 (CRB3) (rat (endogenous in adult rat testis and Sertoli cells))
Experiment: co-IP; about 800 ug adult rat testis lysate in IP lysis buffer (50 mM Tris pH 7.4, 0.15 M NaCl, 1% NP-40, 2 mM EGTA, 10% glycerol), pre-cleared with normal IgG; 2 ug precipitating antibody (against the partner proteins, Fig. 4A, or against CRB3, Fig. 4B) at room temperature overnight; Protein A/G PLUS agarose; immunoblot; normal rabbit or mouse IgG as negative control

- binding: binds
B1: PALS1 (protein associated with Lin-7 1, also known as Mpp5) (protein, UniProt B4F7E7 1-675)
chain: MTTSYMNGHVTEESDSGIKNLGLASPEEHPKHREMAVDCPGDLGTRLMPVRRSAQLERIRQQQEDMRRRREEEGKKQELDLNSSMRLKKLAQIPPKTGIDNPIFDTEEGIVLESPHYAVKILEVEDLFSSLKHIQHTLVDSQSQEDISLLLQLVQNRDFQNAFKIHNAVTVHMNKASPPFPLIANVQDLVQEVQTVLKPVHQKEGQELTALLNAPHIQALLLAHDKVAEQEMQLEPITDERVYESIGHYGGETVKIVRIEKARDIPLGATVRNEMDSVIISRIVKGGAAEKSGLLHEGDEVLEINGIEIRGKDVNEVFDLLSDMHGTLTFVLIPSQQIKPPPAKETVIHVKAHFDYDPSDDPYVPCRELGLSFQKGDILHVISQEDPNWWQAYREGDEDNQPLAGLVPGKSFQQQREAMKQTIEEDKEPEKSGKLWCAKKNKKKRKKVLYNANKNDDYDNEEILTYEEMSLYHQPANRKRPIILIGPQNCGQNELRQRLMNKEKDRFASAVPHTTRNRRDHEVAGRDYHFVSRQAFEADIAAGKFIEHGEFEKNLYGTSIDSVRQVINSGKICLLSLRAQSLKTLRNSDLKPYIIFIAPPSQERLRALLAKEGKNPKPEELREIIEKTREMEQNNGHYFDTAIVNSDLDKAYQELLRLINKLDTEPQWVPSTWLR

No constants are given. Whether binding was seen depends on the method and setting. Binding seen in cells or lysates may run through a third protein. Binding calls can cover weak binding; strength is not graded here.
